In patent EP0813419B1 (YEDA RESEARCH & DEVELOPMENT COMPANY, LTD., dated 2005):
These are yes or no findings as the source states them, for the method shown. For part of these data: In cells and extracts the contact can be indirect. Some entries that bind do so weakly or less than the wild type. For part of these data: Tags and fused reporters may be left off the sequences shown.

By UniProt entry, the sequences of proteins in these tests, tags left out.
UniProt Q13158: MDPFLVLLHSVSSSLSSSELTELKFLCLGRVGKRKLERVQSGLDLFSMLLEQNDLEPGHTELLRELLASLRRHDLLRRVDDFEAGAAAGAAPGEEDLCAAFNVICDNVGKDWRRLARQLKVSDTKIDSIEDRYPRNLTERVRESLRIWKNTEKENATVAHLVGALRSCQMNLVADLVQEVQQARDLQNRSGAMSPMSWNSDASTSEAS

Key:
[1] = molecular target: T1, DD of TRADD (amino acids 195-312), fused at its N-terminus either with the FLAG octapeptide or the HA epitope (human) (UniProt Q15628); experiment: co-immunoprecipitation from lysates of transfected HeLa cells (anti-FLAG M2 or anti-HA 12CA5), 35S label, SDS-PAGE, autoradiography
T1 sequence (looked up): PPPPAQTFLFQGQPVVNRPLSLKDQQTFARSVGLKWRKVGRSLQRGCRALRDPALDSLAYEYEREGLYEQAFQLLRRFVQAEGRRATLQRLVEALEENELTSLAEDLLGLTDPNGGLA

[2] = molecular target: T1, DD of TRADD (amino acids 195-312), fused at its N-terminus either with the FLAG octapeptide or the HA epitope (human); experiment: co-immunoprecipitation from lysates of transfected HeLa cells, 35S label, SDS-PAGE (15% acrylamide), autoradiography
[3] = molecular target: MORT-1 (bait of a two-hybrid screen) (UniProt Q13158); experiment: yeast two-hybrid library screen with MORT-1 as bait (not shown)

Row | Molecule | binding [1] | binding [2] | binding [3]
1 | MORT-1 (nucleotides 19-753 in GenBank accession number U24231), fused at its N-terminus with the FLAG octapeptide (from UniProt Q13158 1-208) | binds | binds | –
2 | TRADD (encoded by cDNAs cloned in the MORT-1 two-hybrid screen) (protein, UniProt Q15628 1-312, looked up) MAAGQNGHEEWVGSAYLFVESSLDKVVLSDAYAHPQQKVAVYRALQAALAESGGSPDVLQMLKIHRSDPQLIVQLRFCGRQPCGRFLRAYREGALRAALQRSLAAALAQHSVPLQLELRAGAERLDALLADEERCLSCILAQQPDRLRDEELAELEDALRNLKCGSGARGGDGEVASAPLQPPVPSLSEVKPPPPPPPAQTFLFQGQPVVNRPLSLKDQQTFARSVGLKWRKVGRSLQRGCRALRDPALDSLAYEYEREGLYEQAFQLLRRFVQAEGRRATLQRLVEALEENELTSLAEDLLGLTDPNGGLA | – | – | binds
